Results from US5652213A, “Cyclic peptide antifungal agents” (Eli Lilly and Company, priority 1996, dated 1997).
In brackets after ≈: the same amount, converted by molar mass. At least one peptide structure holds a part that was inferred or is arguable (an end, a ring closure or a residue).

These compounds were tested on C. albicans (assay: Minimal inhibitory concentration against C. albicans (standard agar dilution or disc-diffusion test)). Details: in vitro.
Format: cell-based
CCCCCOc1ccc(-c2ccc(-c3ccc(C(=O)NC4CC(O)C(OCCCCN)NC(=O)C5C(O)C(C)CN5C(=O)C(C(C)O)NC(=O)C(C(O)C(O)c5ccc(O)cc5)NC(=O)C5CC(O)CN5C(=O)C(C(C)O)NC4=O)cc3)cc2)cc1 (stereo not shown) [Example 4B] gave an MIC of 0.312 µg/mL (≈ 0.258 µM).
CCCCCOc1ccc(-c2ccc(-c3ccc(C(=O)NC4CC(O)C(OCCP(=O)(OC)OC)NC(=O)C5C(O)C(C)CN5C(=O)C(C(C)O)NC(=O)C(C(O)C(O)c5ccc(O)cc5)NC(=O)C5CC(O)CN5C(=O)C(C(C)O)NC4=O)cc3)cc2)cc1 (stereo not shown) [Example 10] was tested, and the MIC was 0.020 µg/mL (≈ 0.0157 µM).
CCCCCOc1ccc(-c2ccc(-c3ccc(C(=O)NC4CC(O)C(OCCN5CCCC5)NC(=O)C5C(O)C(C)CN5C(=O)C(C(C)O)NC(=O)C(C(O)C(O)c5ccc(O)cc5)NC(=O)C5CC(O)CN5C(=O)C(C(C)O)NC4=O)cc3)cc2)cc1 (stereo not shown) [Example 15] was tested, and the MIC was 0.312 µg/mL (≈ 0.252 µM).
CCCCCOc1ccc(-c2ccc(-c3ccc(C(=O)NC4CC(O)C(OCC[Si](C)(C)C)NC(=O)C5C(O)C(C)CN5C(=O)C(C(C)O)NC(=O)C(C(O)C(O)c5ccc(O)cc5)NC(=O)C5CC(O)CN5C(=O)C(C(C)O)NC4=O)cc3)cc2)cc1 (stereo not shown) [Example 18] gave an MIC of 0.25 µg/mL (≈ 0.202 µM).
